# Experimental data: the supplement of paper PMC4604168 (melanoma cell lines)
# Some of the results follow. Many values rest on one well or one pass, so single values are uncertain.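 The apoptosis fraction was the count of cleaved-PARP antibody-stained nuclei relative to all DNA-stained nuclei, imaged in 1,536-well plates. Screening doses were set so most cells survived, and baseline and induced cleaved-PARP levels vary greatly across cell lines.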
# How the values were obtained:
# Experiment in all cases: cleaved PARP positive nuclei fraction relative to DMSO control; melanoma cells; higher = more apoptosis
# Conditions in all cases: library dose: low library concentration; 72 h
# A101D = system: A101D
# A2058 = system: A2058
# A375 = system: A375
# C32 = system: C32
# CBRC008 = system: CBRC008 (line from a melanoma biopsy)
# CBRC014 = system: CBRC014 (line from a melanoma biopsy)
# CBRC016 = system: CBRC016 (line from a melanoma biopsy)
# CBRC017 = system: CBRC017 (line from a melanoma biopsy)
# CBRC034 = system: CBRC034 (line from a melanoma biopsy)
# COLO792 = system: COLO792
# COLO800 = system: COLO800
# COLO829 = system: COLO829
# G361 = system: G361
# IPC-298 = system: IPC-298
# IST-MEL1 = system: IST-MEL1
# LOXIMVI = system: LOXIMVI
# MEL-HO = system: MEL-HO
SMILES,cleaved PARP positive nuclei fraction (A101D),cleaved PARP positive nuclei fraction (A2058),cleaved PARP positive nuclei fraction (A375),cleaved PARP positive nuclei fraction (C32),cleaved PARP positive nuclei fraction (CBRC008),cleaved PARP positive nuclei fraction (CBRC014),cleaved PARP positive nuclei fraction (CBRC016),cleaved PARP positive nuclei fraction (CBRC017),cleaved PARP positive nuclei fraction (CBRC034),cleaved PARP positive nuclei fraction (COLO792),cleaved PARP positive nuclei fraction (COLO800),cleaved PARP positive nuclei fraction (COLO829),cleaved PARP positive nuclei fraction (G361),cleaved PARP positive nuclei fraction (IPC-298),cleaved PARP positive nuclei fraction (IST-MEL1),cleaved PARP positive nuclei fraction (LOXIMVI),cleaved PARP positive nuclei fraction (MEL-HO)
"C[C@]1(O)C[C@@H](c2nc(-c3ccc4ccc(-c5ccccc5)nc4c3)c3c(N)nccn32)C1 + Nc1nc(F)nc2c1ncn2[C@@H]1O[C@H](CO)[C@@H](O)[C@@H]1O [fludarabine] (first compound 0.4 µM, partner dose 0.2 µM)",43.2%,130%,7190%,216%,91.6%,102%,52.9%,106%,99.8%,123%,256%,74.1%,164%,96.1%,58%,119%,46.7%
"NC1(c2ccc(-c3nc4ccn5c(=O)[nH]nc5c4cc3-c3ccccc3)cc2)CCC1 + Nc1nc(F)nc2c1ncn2[C@@H]1O[C@H](CO)[C@@H](O)[C@@H]1O [fludarabine] (first compound 0.4 µM, partner dose 0.2 µM)",176%,350%,4390%,76.5%,83.8%,97.5%,42.4%,103%,172%,147%,73.8%,197%,141%,190%,98.7%,172%,274%
"NC(=O)c1ccc(N(C(N)=O)c2c(F)cccc2F)nc1-c1ccc(F)cc1F + CO[C@H]1C[C@@H]2CC[C@@H](C)[C@@](O)(O2)C(=O)C(=O)N2CCCC[C@H]2C(=O)O[C@H]([C@H](C)C[C@@H]2CC[C@@H](OCCO)[C@H](OC)C2)CC(=O)[C@H](C)/C=C(\C)[C@@H](O)[C@@H](OC)C(=O)[C@H](C)C[C@H](C)/C=C/C=C/C=C/1C [everolimus] (first compound 0.4 µM, partner dose 0.02 µM)",34.2%,128%,1300%,91.5%,71.2%,98.6%,137%,125%,88.2%,129%,82.9%,134%,87.1%,115%,78.6%,129%,198%
"Cn1sc(=O)n(Cc2ccccc2)c1=O + Nc1ccn([C@@H]2O[C@H](CO)[C@@H](O)C2(F)F)c(=O)n1 [gemcitabine] (first compound 0.4 µM, partner dose 0.0004 µM)",59.8%,112%,145%,69.9%,188%,122%,47.4%,121%,220%,80%,71.5%,134%,138%,166%,195%,121%,174%
"CC1(C)CCC(c2ccc(Cl)cc2)=C(CN2CCN(c3ccc(C(=O)NS(=O)(=O)c4ccc(N[C@H](CCN5CCOCC5)CSc5ccccc5)c(S(=O)(=O)C(F)(F)F)c4)cc3)CC2)C1 + Cn1cnc2c(F)c(Nc3ccc(Br)cc3Cl)c(C(=O)NOCCO)cc21 [selumetinib] (first compound 0.4 µM, partner dose 0.015 µM)",211%,203%,570%,377%,756%,712%,602%,583%,567%,298%,134%,105%,237%,107%,106%,106%,117%
"CC1(C)CCC(c2ccc(Cl)cc2)=C(CN2CCN(c3ccc(C(=O)NS(=O)(=O)c4ccc(N[C@H](CCN5CCOCC5)CSc5ccccc5)c(S(=O)(=O)C(F)(F)F)c4)cc3)CC2)C1 + Cn1nnc2c(C(N)=O)ncn2c1=O [temozolomide] (first compound 0.4 µM, partner dose 2 µM)",134%,208%,202%,130%,766%,1010%,766%,403%,200%,459%,120%,149%,238%,596%,120%,245%,85%
"C[C@]1(O)C[C@@H](c2nc(-c3ccc4ccc(-c5ccccc5)nc4c3)c3c(N)nccn32)C1 + CC(=O)c1c(C)c2cnc(Nc3ccc(N4CCNCC4)cn3)nc2n(C2CCCC2)c1=O [palbociclib] (first compound 0.4 µM, partner dose 0.04 µM)",48.9%,97.5%,299%,81.8%,128%,122%,48.9%,126%,128%,94%,147%,46.5%,86.3%,104%,31.9%,54.8%,53%
"CC1(C)CCC(c2ccc(Cl)cc2)=C(CN2CCN(c3ccc(C(=O)NS(=O)(=O)c4ccc(N[C@H](CCN5CCOCC5)CSc5ccccc5)c(S(=O)(=O)C(F)(F)F)c4)cc3)CC2)C1 + COc1ccc2c(c1)CCC1C2CCC2(C)C(NCCCCCCN3C(=O)C=CC3=O)CCC12 [U73122] (first compound 0.4 µM, partner dose 0.4 µM)",15.5%,209%,,166%,479%,522%,497%,567%,,451%,174%,115%,246%,149%,57.8%,153%,
"CS(=O)(=O)c1ccc(C(=O)Nc2ccc(Cl)c(-c3ccccn3)c2)c(Cl)c1 [vismodegib] + CCCS(=O)(=O)Nc1ccc(F)c(C(=O)c2c[nH]c3ncc(Cl)cc23)c1F [PLX4720] (first compound 1 µM, partner dose 0.08 µM)",29.7%,232%,475%,87%,59.9%,129%,102%,127%,76.1%,51%,80%,75.8%,142%,65.1%,67.4%,93.9%,77.4%
"CC(=O)O[C@@]12CO[C@@H]1C[C@H](O)[C@@]1(C)C(=O)[C@H](O)C3=C(C)[C@@H](OC(=O)[C@H](O)[C@@H](NC(=O)OC(C)(C)C)c4ccccc4)C[C@@](O)([C@@H](OC(=O)c4ccccc4)[C@H]21)C3(C)C [Docetaxel] + CC(C)C[C@H](NC(=O)[C@H](Cc1ccccc1)NC(=O)c1cnccn1)B(O)O [Bortezomib] (first compound 0.0001 µM, partner dose 0.001 µM)",295%,4800%,5800%,176%,456%,208%,433%,147%,91.3%,333%,590%,229%,1000%,842%,227%,88.2%,61.4%
"CCCCCCCCc1ccc(CCC(N)(CO)CO)cc1 [fingolimod] + O=c1cc(-c2cccc3c2Sc2ccccc2S3)oc(N2CCOCC2)c1 [KU55933] (first compound 2 µM, partner dose 1 µM)",31.1%,222%,,123%,139%,110%,19.5%,115%,,58.8%,101%,55.6%,57.9%,92.1%,149%,186%,
